Assay [1] has as its target cynomolgus monkey TIGIT on primary T cells (cynomolgus monkey). The experiment in a line: flow cytometry on primary CD3+ T cells.
Assay [2] addresses His-tagged cynomolgus monkey TIGIT (cynomolgus monkey). The experiment in a line: BIACORE affinity analysis.

Drawing on patent publication US20220403022A1, this text covers binding for three molecules.

Positions count from the first letter of the chain named. No constants are given. Whether binding was seen depends on the method and setting. Some results given as binding are weak or reduced against the parent protein; the word gives no strength.

B1: 3963H03-12 (antibody, human IgG1, kappa, V domains shown)
VH: QVQLVQSGSELKKPGASVKVSCKASGYTFTSYPMNWVRQAPGQGLEWMGWINTNTGNPTYAQGFTGRFVFSLDTSVSTAYLQISSLKAEDTAVYYCARVGGYSVDEYAFDVWGQGTLVTVSS
VL: DIQLTQSPSFLSASVGDRVTITCRASQGISSYLAWYQQKPGKAPKLLIYAASTLQSGVPSRFSGSGSGTEFTLTISSLQPEDFATYYCQQLSSYPTFGGGTKVEIKR
With B1, the binding entry in assay [1] is recorded as “binds”.

B2: 7728B03 (antibody, V domains shown)
VH: B1 VH with V2M, V99T, A108S, V111I, L117T
VL: DIQLTQSPSFLSASVGDRVTITCRASQGISSYLAWYQQKPGKAPKLLIYAASTLQSGVPSRFSGSGSGTEFTLTISSLQPEDFATYYCHQTIFRPTFGGGTKVEIK
For B2, in assay [2], the binding entry is on record as “binds”.

B3: 7729G05 (antibody, V domains shown)
VH: B1 VH with Y102F, S103T, D105P, V111I, L117T
VL: B2 VL with Q3R, H89G, T91V, I92M, F93R, R94Y, T96A
In the case of B3, the binding entry in assay [2] is “binds”.
